PubChem BioAssay AID1159578, Peter MacCallum Cancer Centre | 2015

Aim: 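Genome-wide hunt for genes controlling movement of lymphatic endothelial cells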 (primary screen)
Cells: human lymphatic endothelial cells
Reagent: siRNA pool against human genes, 40 nM
Time to read-out: 48 h after transfection
Measurement: 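Cells stained with dye and imaged after a scratch; covered wound area and nuclei counted, duplicates averaged, migration set against mock wells and turned into a robust z-score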
Scale: migration robust z-score: higher = faster migration into the scratch; nuclei per well: higher = more cells in the well
Active means: 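Migration changed when robust z exceeds 2 or falls below -2 and mean nuclei number is at least 3300; otherwise not called changed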
Calls: active = migration changed; inactive = no migration change, or too few cells
Shown is an unselected part of about 18,000 reagents. About 1,030 of them (5.7%) count as active. 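Inactive calls also include pools with fewer than 3300 nuclei, whose migration was not assessed.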 Raw values are not corrected between plates. Entries without a mark were called inactive. Not all columns of the deposit are shown. No sequences are given here.

| target | migration robust z-score | nuclei per well, duplicate mean |
| --- | --- | --- |
| CYTH3 | -0.78 | 4982 |
| DMBT1 | -0.06 | 5998 |
| DDX11 | 0.08 | 5755 |
| CETN3 | 0.86 | 6342 |
| PCDH9 | 0.54 | 5463 |
| NPAP1 | -0.26 | 5700 |
| NFKBIZ | -2.33 (active) | 5936 |
| CEP85L | -1.25 | 5640 |
| FLNA | -0.29 | 5232 |
| NOTCH4 | 0.31 | 5610 |
| RP1 | 0.38 | 3342 |
| SMARCB1 | -0.16 | 5604 |
| RUSC2 | -1.75 | 3205 |
| GUCA1B | -0.1 | 5186 |
| GUCA1A | -0.73 | 4633 |
| NAXE | -0.81 | 5295 |
| REX1BD | 0.51 | 7330 |
| P2RY4 | -0.6 | 5036 |
| LGR4 | 0.62 | 6247 |
| GDAP1 | 1.33 | 6380 |
| UPK2 | -0.57 | 5531 |
| TET1 | -1.84 | 4016 |
| CLDN10 | 0.93 | 5288 |
| GNL2 | -0.52 | 4790 |
| PIP5K1B | -1.61 | 4019 |
| SND1-IT1 | 1.29 | 6653 |
| GATA3 | -0.16 | 5748 |
| TMEM163 | 1.6 | 5408 |
| RTCA | 0.99 | 6011 |
| CFAP44 | 0.92 | 5168 |
| ST7 | -0.46 | 5652 |
| TAS1R2 | -3.31 (active) | 3620 |
| OR8J3 | 0.62 | 6516 |
| NCALD | -0.34 | 5812 |
| IL10 | 0.34 | 5066 |
| LCE3A | 0.42 | 5132 |
| TNFRSF1A | 0.99 | 5316 |
| ANLN | 0.46 | 4292 |
| ECHDC1 | 0.84 | 5731 |
| WASF2 | -2.87 | 2430 |
| SLC5A5 | -0.91 | 4832 |
| ARMC6 | -0.53 | 5454 |
| CLDN15 | -0.7 | 4412 |
| ELOVL7 | -0.08 | 5764 |
| CST9L | 0.78 | 4808 |
| RHOT2 | 0.44 | 6724 |
| BRMS1L | 0.47 | 4841 |
| ZNF45 | 0.42 | 5213 |
| RIN3 | -0.68 | 6209 |
| RELB | 0.24 | 5302 |
| SNAI3 | -0.76 | 5115 |
| TNMD | 0.72 | 5318 |
| OPALIN | -0.06 | 5408 |
| TMLHE | 0.83 | 5332 |
| ZNF180 | 1.4 | 6267 |
| CWH43 | -1.21 | 5222 |
| GNMT | 0.83 | 5612 |
